These are yes or no findings as the source states them, for the method shown. Some entries that bind do so weakly or less than the wild type.
Columns and labels:
[1] = target: human CD154 expressed on the cell surface of J558L cells (murine myeloma cell line transfected with human CD154) (human) (UniProt P29965); test: flow cytometry, phage on J558L cells, anti-M13 antibody
[2] = target: human CD154 expressed on the cell surface of J558L cells (murine myeloma cell line transfected with human CD154) (human) (UniProt P29965); test: flow cytometry, phage (10^11 cfu) on J558L cells, anti-M13 antibody

Amino acid sequences for entries named in this document (tags omitted). A change or cut given only in a name is not applied to a line headed by its entry.
UniProt P29965: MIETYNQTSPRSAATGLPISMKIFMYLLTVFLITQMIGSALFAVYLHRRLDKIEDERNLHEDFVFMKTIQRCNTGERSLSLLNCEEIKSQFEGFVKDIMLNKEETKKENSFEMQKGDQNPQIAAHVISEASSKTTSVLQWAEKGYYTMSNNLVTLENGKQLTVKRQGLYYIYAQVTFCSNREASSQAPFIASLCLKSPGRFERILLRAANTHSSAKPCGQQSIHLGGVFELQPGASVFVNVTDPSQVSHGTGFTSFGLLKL
UniProt P69168: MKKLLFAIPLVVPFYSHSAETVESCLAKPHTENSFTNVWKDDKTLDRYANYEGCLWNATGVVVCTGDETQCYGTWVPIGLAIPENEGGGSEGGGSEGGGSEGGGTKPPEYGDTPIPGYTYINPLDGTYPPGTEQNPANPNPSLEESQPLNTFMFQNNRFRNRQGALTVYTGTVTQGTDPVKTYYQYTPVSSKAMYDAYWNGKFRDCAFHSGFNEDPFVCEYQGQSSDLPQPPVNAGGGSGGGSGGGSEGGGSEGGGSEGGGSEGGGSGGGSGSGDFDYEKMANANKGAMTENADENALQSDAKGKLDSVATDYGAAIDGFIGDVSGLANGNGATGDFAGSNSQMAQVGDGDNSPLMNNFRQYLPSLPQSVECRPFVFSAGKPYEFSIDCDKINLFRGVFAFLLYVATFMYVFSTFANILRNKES

| Substance | binding [1] | binding [2] |
| --- | --- | --- |
| phage clone 4.2 = 4.3 (from UniProt P69168 19-424) | binds | binds |
| phage clone 4.4 (from UniProt P69168 19-424) | binds | binds |
| phage clone 4.6 (from UniProt P69168 19-424) | binds | binds |
| phage clone 4.7 = 4.12 (from UniProt P69168 19-424) | binds | binds |
| phage clone 4.8 (from UniProt P69168 19-424) | binds | binds |
| phage clone 4.10 (from UniProt P69168 19-424) | binds | binds |
| phage clone 4.11 (from UniProt P69168 19-424) | binds | binds |
